These are yes or no findings as the source states them, for the method shown. Some results given as binding are weak or reduced against the parent protein; the word gives no strength.
Key:
[1] = target: C/EBPβ (endogenous, U937) (human (endogenous in U937)) (UniProt P17676); assay: re-ChIP (sequential chromatin immunoprecipitation); U937 cells with or without 2.5 ng/ml TGFβ1 for 1.5 hrs, cross-linked; first immunoprecipitation with C/EBPβ antibody, release in 1% SDS, 10 mM DTT, second immunoprecipitation with C/EBPα or C/EBPβ antibody; quantitative PCR of the MAD1 promoter (primer set P)
[2] = target: C/EBPβ (UniProt P17676); assay: native gel or EMSA; whole cell extracts of HEK293 cells overexpressing C/EBPα and C/EBPβ incubated with 32P-labelled CCAAT box1 oligonucleotide of the MAD1 promoter, 30°C 30 min; supershift with C/EBPα- or C/EBPβ-specific antibody; the heterodimer is seen on DNA

Sequences of proteins named here, by UniProt entry; tags and fusion partners are left off.
UniProt P17676: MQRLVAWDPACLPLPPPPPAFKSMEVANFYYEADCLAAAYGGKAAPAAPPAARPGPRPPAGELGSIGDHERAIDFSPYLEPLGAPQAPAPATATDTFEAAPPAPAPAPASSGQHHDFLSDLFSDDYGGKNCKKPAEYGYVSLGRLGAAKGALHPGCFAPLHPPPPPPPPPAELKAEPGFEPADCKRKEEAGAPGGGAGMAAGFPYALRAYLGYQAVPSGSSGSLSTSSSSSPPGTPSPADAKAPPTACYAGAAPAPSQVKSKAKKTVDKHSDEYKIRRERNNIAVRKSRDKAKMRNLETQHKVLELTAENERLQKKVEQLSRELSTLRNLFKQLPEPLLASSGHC
UniProt P49715: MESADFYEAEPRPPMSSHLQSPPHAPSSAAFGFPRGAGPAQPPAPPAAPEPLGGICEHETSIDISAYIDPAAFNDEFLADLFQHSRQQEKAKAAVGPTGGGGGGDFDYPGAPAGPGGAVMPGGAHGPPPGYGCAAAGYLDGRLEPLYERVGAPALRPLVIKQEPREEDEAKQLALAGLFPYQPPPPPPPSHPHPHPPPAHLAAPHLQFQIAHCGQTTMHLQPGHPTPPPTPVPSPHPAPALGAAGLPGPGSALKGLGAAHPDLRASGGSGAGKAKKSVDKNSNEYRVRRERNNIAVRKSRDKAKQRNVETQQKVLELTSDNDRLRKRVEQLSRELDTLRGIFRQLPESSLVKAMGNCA

| binding [1] | binding [2] | Substance |
| --- | --- | --- |
| binds | – | C/EBPα (endogenous, U937) (from UniProt P49715 1-358) |
| – | binds | C/EBPα (from UniProt P49715 1-358) |
